Test results published in PMC9663578, “A fluorogenic probe for predicting treatment response in non-small cell lung cancer with EGFR-activating mutations” (Nature Communications, 2022).

Tested on: biopsy samples from NSCLC patients
Assay: HX103-based multicolor FACS, biopsy samples
Assay type: cell-based, human
Parameters: AUC of ROC, HX103(+) vs EGFR-activating mutations / AUC of ROC, EGFR(+)HX103(+) vs EGFR-activating mutations / AUC of ROC, EGFR(+)HX103(+) vs therapy response to EGFR-TKI / AUC of ROC, HX103(+) vs therapy response to EGFR-TKI: unit not given beside the values
Conditions: for Area under the ROC curve EGFR(+)HX103(+) (%) / Area under the ROC curve HX103(+) (%): Biopsy samples

COc1cc2c(Nc3ccc(F)c(Cl)c3)ncnc2cc1OCCCNc1ccc(S(=O)(=O)N(C)C)c2nonc12 [HX103]
AUC of ROC, EGFR(+)HX103(+) vs therapy response to EGFR-TKI (13 evaluable patients): 1.0 | AUC of ROC, HX103(+) vs therapy response to EGFR-TKI (13 evaluable patients): 1.0 | AUC of ROC, EGFR(+)HX103(+) vs EGFR-activating mutations (31 biopsy samples): 0.93 | AUC of ROC, HX103(+) vs EGFR-activating mutations (31 biopsy samples): 0.93 | Area under the ROC curve EGFR(+)HX103(+) (%) (CR/PR vs SD/PD): 1 | Area under the ROC curve HX103(+) (%) (CR/PR vs SD/PD): 1 | Area under the ROC curve EGFR(+)HX103(+) (%) (Mutation vs WT): 0.9292 | Area under the ROC curve HX103(+) (%) (Mutation vs WT): 0.9292 | sensitivity, EGFR(+)HX103(+) vs EGFR mutations (cut-off 30.1%, 11/15): 73.3% | specificity, EGFR(+)HX103(+) vs EGFR mutations (cut-off 30.1%, 16/16): 100% | sensitivity, EGFR(+)HX103(+) vs therapy response to EGFR-TKI (previous cut-off points): 100% | sensitivity, HX103(+) vs therapy response to EGFR-TKI (previous cut-off points): 100% | specificity, EGFR(+)HX103(+) vs therapy response to EGFR-TKI (previous cut-off points): 100% | specificity, HX103(+) vs therapy response to EGFR-TKI (previous cut-off points): 100%
